# In all, about 340,000 compounds went through this assay and about 170 (0.05%) were called active. Inconclusive results, whose numbers are uncertain, are shown with a selection of clear calls. Calls follow the shape of the dose curve; as a rule, active = well fitted inhibition curve with a large enough effect in the signal ratio, with a control signal flat (not every such curve was filed as active); inconclusive = small, poorly fitted or top-dose-only effect, or effect the other way, or a change in a side signal; inactive = flat fitted curve, though single readings scatter; the % refers to the signal ratio. Potencies of inconclusive entries are doubtful fits and often do not repeat.
# Assay: qHTS Assay to Find Inhibitors of Chronic Active B-Cell Receptor Signaling;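 as to activity change, negative = inhibition: plate controls were basal doxycycline-induced cells for no effect and cells given 10 µM MG132 for full effect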
# Details: ABC-DLBCL IkBa-CBG/CBR reporter, luminescence ratio (green luciferase fused to IkBa over red control in TMD8 lymphoma cells), 4 h; activity change, negative = inhibition: at 46.1 µM (top of the series) unless noted
# Summary of the method: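 Concentration-response series (up to 46 uM) were applied to TMD8 dual-reporter cells for 4 h at 37C with doxycycline. Green/red ratio, after filter-overlap correction, defined %Activity; red signal alone was normalised to basal cells and zero luminescence.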
# Potency is read from the fitted curve at half-maximal effect.
Structure (SMILES),"activity change, negative = inhibition",Potency
O=C(N/N=C/c1cc2c(cc1[N+](=O)[O-])OCO2)c1cccnc1,inconclusive: -7.77%,–
COc1ccc(-c2csc(C)n2)cc1Br,inconclusive: 0.0583%,–
CC1=C(C)/C(=N\OS(=O)(=O)c2ccccc2)C=CC1=O,–,"inconclusive: 29.1 µM [rising, single point]"
CCCCCN(C(=O)CCC(=O)OCc1cc(C(C)=O)ccc1OC)c1c(N)n(CCCC)c(=O)[nH]c1=O,inconclusive: 12.2%,–
Cn1c(CNc2ccccc2O)nc2ccccc21,–,"inconclusive: 11.2 µM [falling, partial curve]"
COc1ccc(N(CC(=O)N/N=C/c2ccccc2OC)S(=O)(=O)c2ccccc2)cc1,inconclusive: 1.19%,–
O=C(Nc1nnc(SCc2cccc3ccccc23)s1)C1COc2ccccc2O1 (stereo not given),inconclusive: 19.5%,–
C=CCn1c(=O)[nH]c2cc(C(=O)N3CCN(c4cccc(Cl)c4)CC3)ccc2c1=O,inconclusive: 16.8%,–
O=C(Cn1c(=O)n(CCC(=O)N2CCCCC2)c(=O)c2sccc21)NCc1ccccc1,inactive: 5.01%,–
O=C(c1cc(-c2ccccc2)nc2ccccc12)N1CCN(c2ccccc2O)CC1,inconclusive: 3.85%,–
CN1/C(=C\C(=O)CSc2cccc[n+]2[O-])C(C)(C)c2ccccc21,–,"inconclusive: 5.01 µM [rising, single point]"
COc1ccc(CNCc2cc3c(C(C)(C)C)nn(-c4ccccc4)c3[nH]c2=O)cc1,inconclusive: 27.8%,–
COC(=O)CN(c1cc(Cl)ccc1OC)S(=O)(=O)c1ccc(C)cc1,inconclusive: -3.64%,–
CCC1CCCCN1C(=O)CSc1nc2c(c(=O)n(C)c(=O)n2C)n1C (stereo not given),inconclusive: 14.1%,–
Cn1nc(C(=O)OCC(=O)c2ccccc2)c2ccccc2c1=O,inconclusive: 4.95%,–
O=C(Nc1ncn[nH]1)c1c(Cl)ccc(Cl)c1Cl,inconclusive: -4.5%,–
O=C(NCCO)c1cccc(S(=O)(=O)N2CCCCC2)c1,inconclusive: 2.19%,–
C/C(=N\NC(=O)Cn1nc(C)c([N+](=O)[O-])c1C)c1ccc(Cl)s1,inactive: -2.15%,–
COc1ccc(N2CC(C)(C)C2=O)cc1,inconclusive: 9.56%,–
Cc1cc(C(=O)N/N=C/c2c(C)nn(-c3ccccc3)c2C)n[nH]1,inconclusive: 1.58%,–
COC(=O)c1sccc1NC(=O)Nc1cc(C)cc(C)c1,inconclusive: -6.09%,–
O=C(CSc1cc(Cl)ccc1Cl)NCC1CCCO1 (stereo not given),inconclusive: 11.8%,–
COc1cc(NC(=O)c2cc(C)nc3ccccc23)cc(OC)c1OC,inconclusive: -12.6%,–
O=C(NC(=S)Nc1ccccc1O)c1ccccc1Cl,–,"inconclusive: 17.8 µM [falling, partial curve]"
Cc1ccc(CN=Cc2[nH]c3ccc(Br)c(Cl)c3c2O)cc1,inactive: 0.478%,–
CCOC(=O)C(CC)Sc1nc2c(cnn2-c2ccc(F)cc2)c(=O)[nH]1 (stereo not given),inconclusive: 10.8%,–
Cn1cnnc1SCCOc1ccc(Cl)cc1,inactive: -1.81%,–
CC1CCN(c2[nH]c(=S)c(C#N)c3c2CCCC3)CC1,inactive: -0.0499%,–

Structure (SMILES),"activity change, negative = inhibition",Potency
COc1ccc(CNC(=O)CCS(=O)(=O)c2cc3c(cc2Cl)NC(=O)CO3)cc1,inactive: 0.143%,–
CN(Cc1ccccn1)Cc1nc(-c2ccc(Cl)cc2)no1,inconclusive: 23.7%,–
O=[N+]([O-])c1ccc(CCn2ccnc2)cc1,inconclusive: 1.38%,–
O=C(NCCc1cn2ccccc2n1)c1cc(COc2c(F)cccc2F)on1,–,"inconclusive: 2.51 µM [falling, full curve, poor fit]"
CC(=O)Nc1ccc(NC(=S)NC(=O)c2oc3ccccc3c2C)cc1,inactive: 3.81%,–
COc1ccc(S(=O)(=O)N2CCCCCC2)cc1C(=O)Nc1ccc(C)cn1,inconclusive: 0.38%,–
COc1ccc(Cc2nc3ccc(C(=O)N4CCCC4)cc3o2)cc1,inactive: 2.13%,–
CCCS(=O)(=O)N1CCCC(C(=O)NC(C)c2ccc3c(c2)OCCO3)C1 (stereo not given),inconclusive: 0.0451%,–
CN(C)c1ccc(C(=S)NCc2ccco2)cc1,inconclusive: 13.3%,–
O=C(CNCc1cccs1)Nc1ccc(OC(F)(F)F)cc1,inconclusive: 3.59%,–
CC(C)(C)C1CCc2c(sc3ncn(N)c(=N)c23)C1 (stereo not given),inconclusive: 15.3%,–
CCCc1c2ccccc2nc2ccccc12,inconclusive: 2.39%,–
COCCn1nnnc1CN1CCC(C)CC1,inconclusive: 14.8%,–
CC(=O)N1N=C(c2ccc(Cl)cc2)OC1c1ccc(C(C)C)cc1 (stereo not given),inactive: 0.387%,–
COc1ccc(-c2cc(C(F)F)n3ncc(C(=O)N4CCN(C)CC4)c3n2)cc1,inconclusive: 7.97%,–
CCOc1ccc(N=C2SCCCN2C(=O)c2c(CC)noc2C)cc1,inactive: -0.449%,–
CNc1snc(C)c1C(=O)OCC(=O)c1ccc(OC)c(F)c1,inconclusive: -0.31%,–
Cc1ccc(S(=O)(=O)Nc2ccc(C(=O)Nc3cc(C)on3)cc2)cc1,inconclusive: 28.9%,–
O=C(N=Nc1c(O)[nH]c2ccccc12)c1cccs1,–,"inconclusive: 3.98 µM [rising, full curve, poor fit]"
COc1ccc(NC(=S)N2CCCC(c3nc4ccc(C)cc4[nH]3)C2)c(OC)c1 (stereo not given),–,"inconclusive: 2.51 µM [falling, full curve]"
Cc1ccc(S(=O)(=O)NC(CC(C)C)C(=O)NCCCn2nc(C)cc2C)cc1 (stereo not given),inactive: 5.26%,–
CCOc1ccc(N(Cc2cc3ccc(C)cc3[nH]c2=O)S(C)(=O)=O)cc1,–,"inconclusive: 1.84 µM [falling, full curve, poor fit]"
CN(C)C(CNC(=O)Nc1cccc(Cl)c1)c1cccnc1 (stereo not given),inconclusive: 4.6%,–
Cc1cc(SCc2ccc(Cl)c(Cl)c2)nc(=O)[nH]1,inconclusive: 12.6%,–
COc1ccc(-c2cc3nc4c(c(=O)n3[nH]2)CCC4)cc1,–,"inconclusive: 3.26 µM [falling, full curve]"
CCOC(=O)N1CCN(c2ccnc3cc(Cl)ccc23)CC1,inconclusive: -3.2%,–
COc1ccc(/C=C2\SC(=S)N(CCC(=O)NC3=NCCS3)C2=O)cc1OC,–,"inconclusive: 6.51 µM [falling, partial curve]"

# Sorted by SMILES length (low to high): 4 of the compounds above.
Structure (SMILES),"activity change, negative = inhibition",Potency
Cc1cc(SCc2ccc(Cl)c(Cl)c2)nc(=O)[nH]1,inconclusive: 12.6%,–
CCCS(=O)(=O)N1CCCC(C(=O)NC(C)c2ccc3c(c2)OCCO3)C1 (stereo not given),inconclusive: 0.0451%,–
Cc1ccc(S(=O)(=O)NC(CC(C)C)C(=O)NCCCn2nc(C)cc2C)cc1 (stereo not given),inactive: 5.26%,–
COc1ccc(-c2cc(C(F)F)n3ncc(C(=O)N4CCN(C)CC4)c3n2)cc1,inconclusive: 7.97%,–
